The supplement of paper PMC3334620
The full ranking holds about 33,000 sequences; the median of “E-score (-0.5 to 0.5)” is about -0.0059, and the highest 2% start at about 0.26. The list shows a part of the results.

What follows are sequences tested against T1, Cin5 (UniProt P40917) (assay: PBM E-score (8-mer binding enrichment) (E-score (-0.5 to 0.5)); higher = stronger / more preferred TF binding). Settings: protein concentration: 100 nM; construct: GST-full length.
T1 sequence: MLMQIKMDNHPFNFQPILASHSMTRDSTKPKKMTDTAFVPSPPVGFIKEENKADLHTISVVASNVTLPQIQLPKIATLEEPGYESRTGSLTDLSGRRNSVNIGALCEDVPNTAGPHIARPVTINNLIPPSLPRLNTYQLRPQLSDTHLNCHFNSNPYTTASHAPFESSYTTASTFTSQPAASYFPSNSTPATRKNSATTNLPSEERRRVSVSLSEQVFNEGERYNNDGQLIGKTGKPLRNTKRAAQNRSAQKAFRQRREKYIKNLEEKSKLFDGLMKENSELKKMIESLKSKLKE
Method: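 Universal 'all 10-mer' protein binding microarrays (Agilent AMADID 015681) probed with GST-tagged S. cerevisiae TFs (full-length or DBD) made by in vitro transcription/translation (PURExpress), about 100-200 nM. Bound TF was detected with fluorescent anti-GST. Each ungapped 8-mer (which stands for itself and its reverse complement) is scored by the PBM enrichment score (E-score), a modified Wilcoxon-Mann-Whitney statistic from -0.5 to +0.5, computed with the Universal PBM Analysis Suite. Scale: above 0.35 generally sequence-specific binding.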

| Sequence | PBM E-score |
| --- | --- |
| ACACAGCT | -0.0388 |
| TAGGTGCA | -0.0576 |
| GTCGATAA | -0.00627 |
| AGATGGAC | 0.0596 |
| AAAGAAGT | 0.03 |
| ACTGAGCA | 0.0202 |
| ATGGGGGA | -0.317 |
| CAACTTGA | 0.201 |
| GACTCATC | -0.121 |
| CAGGTGCC | -0.228 |
| ACGCACGG | -0.0803 |
| ATTCGGTA | 0.0271 |
| AGCCAAAG | -0.225 |
| CCGTGTGA | -0.153 |
| CGTGCAGA | -0.0801 |
| TCTCGGAA | 0.073 |
| CATTCGAG | 0.00359 |
| AATTAAGG | -0.0926 |
| AAATGTGC | 0.16 |
| TGCGACCA | 0.114 |
| GGCTCCGA | -0.0818 |
| CAGGGAAC | 0.0123 |
| AAGAACCA | -0.0713 |
| AATACGCT | 0.155 |
| AATTCAGT | 0.0428 |

| Sequence | PBM E-score |
| --- | --- |
| CAGATGGC | -0.172 |
| CATATGGC | 0.058 |
| ACATGAAA | 0.0637 |
| GTTGGTGA | 0.137 |
| ATTTGAGG | -0.117 |
| GGTCACTA | -0.071 |
| AATTACAT | 0.322 |
| CGGGACAA | -0.129 |
| ACTAATAT | 0.234 |
| AACGCAAC | 0.144 |
| ATCGGTCG | -0.0812 |
| GGTCTACA | -0.116 |
| AAAGCTCG | -0.00313 |
| GTAAATGA | 0.164 |
| GGCACCAA | 0.0857 |
| ATTCGGAC | 0.149 |
| GATGTAGA | 0.0633 |
| AAAGTGCA | 0.054 |
| ACCCATAC | 0.162 |
| ACTGCCCT | -0.0972 |
| AAAAAGGC | 0.0174 |
| CAAACGGA | 0.0359 |
| ACACTGCG | -0.0729 |
| CTACCTCC | -0.0402 |
| AAGGAGGG | -0.0409 |

| Sequence | PBM E-score |
| --- | --- |
| AGACACGC | -0.158 |
| AATGGTAT | 0.182 |
| GAGACGCC | -0.072 |
| GTAACTCA | -0.158 |
| TCCAGACA | -0.146 |
| GACTTGTA | -0.119 |
| AGCCCAGG | -0.291 |
| CCTCCTCA | -0.266 |
| AACTGAGT | 0.0446 |
| ACAGCTGT | 0.028 |
| TAGCTACA | 0.168 |
| TAGCGAAA | 0.104 |
| TCGGCCGA | 0.0246 |
| ATCAAAGC | 0.0273 |
| ATGTGATG | -0.0963 |
| TCACCGGA | 0.0333 |
| GGAGAAAC | -0.0254 |
| CAAGAGAC | -0.183 |
| ATCGCTGA | 0.143 |
| CGCGGCGC | 0.0563 |
| ACATAGAT | 0.0439 |
| CCCCTTTC | -0.326 |
| CCCCACAC | -0.125 |
| TTCAGCAA | 0.103 |
| ACAACCGC | 0.188 |

| Sequence | PBM E-score |
| --- | --- |
| TATCGGCA | -0.045 |
| CCCCAATC | 0.0551 |
| ACTCGGAA | 0.175 |
| CGGGAGTA | 0.0223 |
| GCAACAGC | -0.107 |
| ACCGCTCA | 0.0166 |
| GGGCCCAC | -0.128 |
| ATTTCGAC | -0.0159 |
| CGTCGCTC | -0.13 |
| AATTTGAT | 0.0581 |
| AAGAGCGA | -0.161 |
| GCAATCCA | 0.0472 |
| GAAACTCA | -0.0199 |
| GTCATGAC | 0.063 |
| ACCAAATG | 0.0735 |
| ACCCTAGT | -0.122 |
| CGAAACAA | 0.157 |
| GGGGTGCA | -0.0123 |
| CGACTGCG | -0.0963 |
| ACCATATA | 0.223 |
| CGGATAAG | 0.0926 |
| AATCTCGA | 0.14 |
| CGTGGCCC | -0.289 |
| CGTACAAC | 0.0268 |
| ATGCACGC | 0.00415 |

| Sequence | PBM E-score |
| --- | --- |
| CAAGAAAC | 0.218 |
| ATGCGGGC | 0.0795 |
| CGGTGTTA | -0.0862 |
| ACATCAGT | 0.166 |
| ACATTTCG | 0.0106 |
| GTCCTGCA | -0.16 |
| ATGGTCCG | 0.0526 |
| CCCCCCGA | -0.384 |
| GAAAGTTA | 0.133 |
| AATAAACT | 0.09 |
| CATGAGCG | 0.124 |
| GCCCTAGA | -0.32 |
| GACCTATC | -0.0346 |
| AAGCACGC | 0.0796 |
| ATGAGTAG | 0.2 |
| ACGTTGTC | -0.0279 |
| CGAGACAG | 0.0302 |
| ACCAGGCT | -0.134 |
| GGTTGGAA | 0.0833 |
| TGCCCACA | -0.174 |
| GGCCACTA | -0.0458 |
| CAACCCAA | -0.0203 |
| GCCCCGTA | -0.0881 |
| TCCTACAA | 0.0683 |
| AGTCGCAG | -0.154 |

| Sequence | PBM E-score |
| --- | --- |
| ATTCCATA | 0.194 |
| AAACTCAG | -0.0077 |
| CGCCCGAA | -0.0087 |
| CCACCATC | -0.0751 |
| CCTCAGTC | -0.114 |
| CTTCAACA | 0.16 |
| GATGAAAA | 0.0605 |
| AGGGCGCG | -0.168 |
| AGCAATTC | 0.0771 |
| AAATGCTC | 0.093 |
| CTTCTTAA | 0.0253 |
| TGGGCTAA | 0.0236 |
| AACGGTCG | 0.00792 |
| CCTCGGCG | 0.152 |
| AGGAGCCC | -0.136 |
| AAGTCGAC | 0.184 |
| AAAACACA | 0.00626 |
| AAAAAAAG | 0.0425 |
| CAACGGTG | -0.229 |
| ATGCAGCA | 0.0223 |
| CACCGCGA | -0.103 |
| ACGTCAAT | 0.0317 |
| AAAATTTC | -0.0551 |
| ACGGGGTG | 0.0866 |
| AGATTGGG | 0.175 |

Part of the list above in a different format.
AAGTCGAC
  PBM E-score: 0.184
AAAACACA
  PBM E-score: 0.00626

Next results:

| Sequence | PBM E-score |
| --- | --- |
| CCTTCACC | -0.195 |
| TGAATTAA | 0.231 |
| AGGAATTC | -0.0774 |
| AAAACGCT | -0.12 |
| CAACTATA | -0.00786 |
| ACCGTCCA | 0.0127 |
| CGACGGCC | -0.0787 |
| ACGAGCCG | -0.0609 |
| ACAAGCTA | -0.0521 |
| ACTAGGTC | 0.0478 |
| GATCGCCC | -0.0277 |
| ATTACCCA | 0.213 |
| CGATTTAC | 0.0397 |
| AATGTTTA | -0.00999 |
| TCTTATCA | 0.196 |
| ATCCCCAA | 0.231 |
| CGACTATC | -0.0747 |
| ATAGAAAT | 0.206 |
| AGTGATTA | 0.275 |
| AATCTGAC | 0.104 |
| CCCTCCGA | -0.138 |
| GGCTCTCA | -0.265 |

49 entries from above, as tab-separated lines.
Sequence	PBM E-score
GGCCACTA	-0.0458
CAACCCAA	-0.0203
GCCCCGTA	-0.0881
TCCTACAA	0.0683
AGTCGCAG	-0.154
ATTCCATA	0.194
AAACTCAG	-0.0077
CGCCCGAA	-0.0087
CCACCATC	-0.0751
CCTCAGTC	-0.114
CTTCAACA	0.16
GATGAAAA	0.0605
AGGGCGCG	-0.168
AGCAATTC	0.0771
AAATGCTC	0.093
CTTCTTAA	0.0253
TGGGCTAA	0.0236
AACGGTCG	0.00792
CCTCGGCG	0.152
AGGAGCCC	-0.136
AAGTCGAC	0.184
AAAACACA	0.00626
AAAAAAAG	0.0425
CAACGGTG	-0.229
ATGCAGCA	0.0223
CACCGCGA	-0.103
ACGTCAAT	0.0317
AAAATTTC	-0.0551
ACGGGGTG	0.0866
AGATTGGG	0.175
CCTTCACC	-0.195
TGAATTAA	0.231
AGGAATTC	-0.0774
AAAACGCT	-0.12
CAACTATA	-0.00786
ACCGTCCA	0.0127
CGACGGCC	-0.0787
ACGAGCCG	-0.0609
ACAAGCTA	-0.0521
ACTAGGTC	0.0478
GATCGCCC	-0.0277
ATTACCCA	0.213
CGATTTAC	0.0397
AATGTTTA	-0.00999
TCTTATCA	0.196
ATCCCCAA	0.231
CGACTATC	-0.0747
ATAGAAAT	0.206
AGTGATTA	0.275

Some of the entries above in another layout.
Sequence,PBM E-score
GGTCACTA,-0.071
AATTACAT,0.322
CGGGACAA,-0.129
